In PMC12361231:
Results are given in words; binding and its absence hold for the method and conditions named. Binding seen in cells or lysates may run through a third protein. Some results given as binding are weak or reduced against the parent protein; the word gives no strength.

By UniProt entry, the sequences of proteins in these tests, tags left out.
UniProt P10415: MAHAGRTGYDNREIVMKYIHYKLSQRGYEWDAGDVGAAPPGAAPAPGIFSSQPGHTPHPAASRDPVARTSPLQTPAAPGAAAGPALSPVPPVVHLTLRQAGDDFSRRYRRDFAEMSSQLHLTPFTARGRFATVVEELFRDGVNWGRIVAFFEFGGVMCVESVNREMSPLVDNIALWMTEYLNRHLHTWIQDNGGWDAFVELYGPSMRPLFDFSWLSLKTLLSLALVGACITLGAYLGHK
UniProt Q14457: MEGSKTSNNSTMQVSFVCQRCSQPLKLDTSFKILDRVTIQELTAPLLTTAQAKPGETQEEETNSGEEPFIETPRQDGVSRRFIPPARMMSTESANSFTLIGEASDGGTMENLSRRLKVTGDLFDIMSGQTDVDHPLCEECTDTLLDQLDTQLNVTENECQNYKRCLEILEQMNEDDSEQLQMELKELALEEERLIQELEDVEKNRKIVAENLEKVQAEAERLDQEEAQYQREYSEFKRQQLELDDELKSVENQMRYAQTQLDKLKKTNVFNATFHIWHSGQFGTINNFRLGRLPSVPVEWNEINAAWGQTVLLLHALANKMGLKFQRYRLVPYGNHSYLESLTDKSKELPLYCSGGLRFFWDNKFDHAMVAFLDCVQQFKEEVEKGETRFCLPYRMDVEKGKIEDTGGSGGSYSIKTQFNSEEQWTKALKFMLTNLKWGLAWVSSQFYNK

Molecular target: B-cell lymphoma-2 (human (endogenous in A498 and 786-O)) (UniProt P10415)
Experiment: co-IP; lysates of A498 and 786-O cells (pc-NC or pc-BNIP3; normoxia or hypoxia, 1% O2); lysis buffer 50 mM Tris-HCl pH 7.5, 100 mM NaCl, 1% Triton X-100, 0.1 mM EDTA, 0.5 mM MgCl2, 10% glycerol; precipitated with Bcl-2 antibody and Protein-A/G Sepharose beads at 4°C; blots probed for Beclin1 and BNIP3

Substance: Beclin1 (from UniProt Q14457 1-450)
- binding: binds
